# The supplement of paper PMC8104966
# The other results are listed elsewhere or left out. Repeats in this data set agree poorly, so a single value says little.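 U2OS cells expressing ACE2 were combined with U2OS cells expressing full-length spike, and imaging quantified fusion as the fraction of nuclei displaying both cell types' fluorescent markers. Non-toxic compounds with a fusion z-score under -3, i.e., over three standard deviations below the plate's DMSO wells, are called inhibitory hits.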
# Tested on: U2OS ACE2 x SARS-CoV-2 spike co-culture
# Test: cell-cell fusion (fraction fused) z-score vs plate DMSO control; higher = more fusion
# Settings: 30 µM; 5 h; toxicity class: non-toxic, passed QC
row,Compound,cell-cell fusion (z-score)
1,CCOc1cc(C(=O)Nc2ccc(Cl)c(-c3nc4ccccc4[nH]3)c2)cc(OCC)c1OCC,inactive: -0.496
2,CC(=O)c1cccc(N[C@H]2[C@H](N)[C@@](NC(=O)N(C)C)([C@H](C)O)[C@@](C)(O)[C@@]2(O)COC(=O)c2c(C)cccc2O)c1 [Pactamycin],inactive: 1.03
3,CN(CCCCCCCCCCN(C)C(=O)Oc1cccc([N+](C)(C)C)c1)C(=O)Oc1cccc([N+](C)(C)C)c1.[Br-].[Br-] [Demecarium bromide],inactive: 1.49
4,Cc1c(C(N)=O)cc([N+](=O)[O-])cc1[N+](=O)[O-],inactive: 2.24
5,CCOC(=O)CC(=O)N1CCSC1COc1ccccc1OC (stereo unspecified),inactive: 1.3
6,O.O.O=C(Nc1ccc2c(c1)CCN(Cc1ncn[nH]1)C2)c1ccccc1-c1ccc(C(F)(F)F)cc1,inactive: 2.02
7,Cl.NCCS [Cysteamine HCl],inactive: 2.47
8,Cl.NCCS [Cysteamine hydrochloride],inactive: 3.35
9,"CC1(C)C(=O)[C@@H]2O[C@@H]2[C@@]2(C)C1C[C@@H](O)[C@]1(C)C2CC[C@@]2(C)[C@H](c3ccoc3)OC(=O)C3OC321 (stereo partly drawn) [1,2alpha-EPOXYDEACETOXYDIHYDROGEDUNIN]",inactive: 1.34
10,CC[C@H]1OC(=O)[C@H](C)[C@@H](O[C@H]2C[C@@](C)(OC)[C@@H](O)[C@H](C)O2)[C@H](C)[C@@H](O[C@@H]2O[C@H](C)C[C@H](N(C)C)[C@H]2O)[C@](C)(O)C[C@@H](C)C(=O)[C@H](C)[C@@H](O)[C@]1(C)O,inactive: 0.394
11,CNC(=O)Oc1cccc2ccccc12,inactive: -0.374
12,CCN(CC)C(=O)C1(c2ccccc2)CC1CN (stereo unspecified) [Levomilnacipran],inactive: 1.29
13,COC(=O)N/N=C/c1c[n+]([O-])c2ccccc2[n+]1[O-],inactive: 3.12
14,CC(C)[C@H](N)C(=O)O [L-Valine],inactive: 1.84
15,CC(C)[C@H](N)C(=O)O,inactive: 1
16,C[C@]12CCC(=O)C=C1C=CC1C2CC[C@@]2(C)C1CC[C@@]21CCC(=O)O1 (stereo partly specified),inactive: 3.84
17,COc1c2ccoc2cc2oc(C)cc(=O)c12,inactive: 1.67
18,CCOc1nc2cccc(C(=O)O)c2n1Cc1ccc(-c2ccccc2-c2noc(=O)[nH]2)cc1 [Azilsartan],inactive: 0.627
19,COCC(=O)NC/C=C/c1ccc2ncnc(Nc3ccc(Oc4ccc(C)nc4)c(C)c3)c2c1,inactive: -0.0204
20,N=C(N)NCCCCN.O=S(=O)(O)O [Agmatine sulfate],inactive: 2.88
21,N=C(N)NCCCCN.O=S(=O)(O)O,inactive: 1.99
22,Nc1ccc(CCN2CCN(c3cccc(C(F)(F)F)c3)CC2)cc1,inactive: -1.3
23,CCN(CC)CCn1c(=O)c(Cc2ccc(OC)cc2)nc2ccccc21.Cl [Caroverine hydrochloride],inactive: 2.67

# Shown with bars between the fields: entries from further up
row | Compound | cell-cell fusion (z-score)
1 | CCOc1cc(C(=O)Nc2ccc(Cl)c(-c3nc4ccccc4[nH]3)c2)cc(OCC)c1OCC | inactive: -0.496
2 | CC(=O)c1cccc(N[C@H]2[C@H](N)[C@@](NC(=O)N(C)C)([C@H](C)O)[C@@](C)(O)[C@@]2(O)COC(=O)c2c(C)cccc2O)c1 [Pactamycin] | inactive: 1.03
3 | CN(CCCCCCCCCCN(C)C(=O)Oc1cccc([N+](C)(C)C)c1)C(=O)Oc1cccc([N+](C)(C)C)c1.[Br-].[Br-] [Demecarium bromide] | inactive: 1.49
4 | Cc1c(C(N)=O)cc([N+](=O)[O-])cc1[N+](=O)[O-] | inactive: 2.24
5 | CCOC(=O)CC(=O)N1CCSC1COc1ccccc1OC (stereo unspecified) | inactive: 1.3
6 | O.O.O=C(Nc1ccc2c(c1)CCN(Cc1ncn[nH]1)C2)c1ccccc1-c1ccc(C(F)(F)F)cc1 | inactive: 2.02
7 | Cl.NCCS [Cysteamine HCl] | inactive: 2.47
8 | Cl.NCCS [Cysteamine hydrochloride] | inactive: 3.35
9 | CC1(C)C(=O)[C@@H]2O[C@@H]2[C@@]2(C)C1C[C@@H](O)[C@]1(C)C2CC[C@@]2(C)[C@H](c3ccoc3)OC(=O)C3OC321 (stereo partly drawn) [1,2alpha-EPOXYDEACETOXYDIHYDROGEDUNIN] | inactive: 1.34

# (cont.)

row,Compound,cell-cell fusion (z-score)
1,COc1ccc(C(=O)c2ccccc2O)c(O)c1,inactive: 1.3
2,CC(C)[C@H](NC(=O)OCc1ccccc1)C(=O)N[C@H](C=O)Cc1ccccc1,inactive: 2.86
3,COc1cc(/C=C/c2ccc(O)cc2)cc(OC)c1,inactive: 2.95
4,Cl.Nc1c2c(nc3ccccc13)CCCC2.O [Tacrine hydrochloride hydrate],inactive: 1.53
5,COc1cc2ncnc(Nc3cccc(Cl)c3)c2cc1OC [AG-1478 (Tyrphostin AG-1478)],inactive: -2.48
6,CC[N+](C)(C)Cc1ccc(Br)cc1.Cc1ccc(S(=O)(=O)[O-])cc1,inactive: 2.65
7,O=C(O)[C@H](O)[C@@](O)(Cc1ccc(O)cc1)C(=O)O,inactive: 2.77
8,CC(C)OC(=O)OCOP(=O)(CO[C@H](C)Cn1cnc2c(N)ncnc21)OCOC(=O)OC(C)C.O=C(O)/C=C/C(=O)O [Tenofovir Disoproxil Fumarate],inactive: 0.791
9,CC(=O)Oc1cc(C(F)(F)F)ccc1C(=O)O [Triflusal],inactive: 0.728
10,CC(N/C(=N\C#N)Nc1ccncc1)C(C)(C)C (stereo unspecified) [Pinacidil],inactive: 1.37
11,COc1ccc(/C=C/C(=O)O)cc1OC,inactive: 3.29
12,C[C@H]1CCN(C(=O)CC#N)C[C@@H]1N(C)c1ncnc2[nH]ccc12.O=C(O)CC(O)(CC(=O)O)C(=O)O,inactive: 2.66
13,"C#CCn1c(=O)c2c(ncn2C)n(C)c1=O [3,7-Dimethyl-1-propargylxanthine]",inactive: 1.38
14,COc1ccc(-c2cc(=O)c3c(O)c(OC)c(OC)cc3o2)cc1O [Eupatorin],inactive: 1.71
15,O=C(c1ccc2c(c1)OCCO2)N1CCCCC1,inactive: 0.0733
16,C[C@]12CC[C@H]3[C@@H](CC[C@@]45O[C@@H]4C(O)=C(C#N)C[C@]35C)[C@@H]1CC[C@@H]2O [Trilostane],inactive: 1.92
17,C=C1C(N)CC2CC1C2(C)C.Cl (stereo not drawn) [3-AMINO-beta-PINENE],inactive: 3.02
18,Cc1nnc(C(=O)NC(C)(C)c2nc(C(=O)NCc3ccc(F)cc3)c([O-])c(=O)n2C)o1.[K+] [Raltegravir potassium],inactive: 1.98
19,CN(C/C=C/C#CC(C)(C)C)Cc1cccc2ccccc12.Cl [Terbinafine hydrochloride],inactive: 2.83
20,Cc1ccccc1N1C(=O)c2cc(S(N)(=O)=O)c(Cl)cc2NC1C (stereo unspecified) [Metolazone],inactive: 3.74
21,Cc1c(CCOc2ccc(C(=O)O)cc2)c2cc(Cl)ccc2n1C(c1ccccc1)c1ccccc1,inactive: 1.09
22,"COc1ccccc1N1CCN(CCCNc2c(C)c(=O)n(C)c(=O)n2C)CC1 [Urapidil, 5-Methyl-]",inactive: -0.0275
23,CC(=O)O[C@H]1Cc2ccccc2N(C(N)=O)c2ccccc21 [Eslicarbazepine Acetate],inactive: 2.24
